The target in this test is T1, ubiquitin-specific peptidase 47 (USP47), endogenous (human (endogenous in K562 and primary CML cells)) (UniProt Q96K76).
T1 sequence: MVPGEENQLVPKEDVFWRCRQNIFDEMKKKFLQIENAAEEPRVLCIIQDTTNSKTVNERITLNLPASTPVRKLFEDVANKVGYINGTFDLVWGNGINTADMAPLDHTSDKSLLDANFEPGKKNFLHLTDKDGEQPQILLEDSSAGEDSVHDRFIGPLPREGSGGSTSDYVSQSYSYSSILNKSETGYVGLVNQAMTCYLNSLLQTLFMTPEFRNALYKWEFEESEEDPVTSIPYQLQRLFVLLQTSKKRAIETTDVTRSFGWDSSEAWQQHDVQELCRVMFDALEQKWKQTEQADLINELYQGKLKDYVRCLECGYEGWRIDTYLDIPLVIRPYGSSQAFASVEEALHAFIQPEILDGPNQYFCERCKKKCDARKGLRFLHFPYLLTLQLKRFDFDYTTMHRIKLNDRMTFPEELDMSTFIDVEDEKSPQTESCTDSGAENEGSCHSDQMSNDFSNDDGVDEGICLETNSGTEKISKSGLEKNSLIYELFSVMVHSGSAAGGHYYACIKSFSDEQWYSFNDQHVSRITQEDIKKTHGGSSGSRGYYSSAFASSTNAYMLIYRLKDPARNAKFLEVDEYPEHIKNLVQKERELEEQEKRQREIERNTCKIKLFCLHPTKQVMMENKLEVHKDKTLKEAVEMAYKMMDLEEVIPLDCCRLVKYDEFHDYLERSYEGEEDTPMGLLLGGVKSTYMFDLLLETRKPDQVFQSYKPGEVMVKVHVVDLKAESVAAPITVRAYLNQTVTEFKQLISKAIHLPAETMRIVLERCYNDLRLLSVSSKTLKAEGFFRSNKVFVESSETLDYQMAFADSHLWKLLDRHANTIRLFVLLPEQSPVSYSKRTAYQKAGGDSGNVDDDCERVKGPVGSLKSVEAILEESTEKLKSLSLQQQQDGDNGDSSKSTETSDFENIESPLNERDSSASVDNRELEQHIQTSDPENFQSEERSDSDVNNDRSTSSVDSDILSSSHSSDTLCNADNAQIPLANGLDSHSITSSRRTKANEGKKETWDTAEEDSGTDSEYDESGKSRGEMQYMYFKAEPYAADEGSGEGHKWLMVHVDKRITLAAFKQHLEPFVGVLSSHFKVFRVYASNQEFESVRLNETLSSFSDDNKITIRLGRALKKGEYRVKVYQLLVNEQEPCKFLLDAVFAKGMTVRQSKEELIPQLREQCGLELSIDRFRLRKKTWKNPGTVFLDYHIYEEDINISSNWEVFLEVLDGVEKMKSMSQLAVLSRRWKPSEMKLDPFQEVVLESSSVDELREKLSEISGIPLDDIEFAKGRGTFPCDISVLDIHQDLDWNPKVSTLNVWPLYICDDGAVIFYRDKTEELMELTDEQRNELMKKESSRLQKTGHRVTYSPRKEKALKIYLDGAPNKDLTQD
As to the kind of experiment: affinity purification with mass spectrometry; immunoprecipitation with USP47 antibody from K562 cells; SDS-PAGE, Coomassie; two obvious bands cut out, trypsin, LC-MS/MS.

Amino acid sequences for entries named in this document (tags omitted).
UniProt P67809: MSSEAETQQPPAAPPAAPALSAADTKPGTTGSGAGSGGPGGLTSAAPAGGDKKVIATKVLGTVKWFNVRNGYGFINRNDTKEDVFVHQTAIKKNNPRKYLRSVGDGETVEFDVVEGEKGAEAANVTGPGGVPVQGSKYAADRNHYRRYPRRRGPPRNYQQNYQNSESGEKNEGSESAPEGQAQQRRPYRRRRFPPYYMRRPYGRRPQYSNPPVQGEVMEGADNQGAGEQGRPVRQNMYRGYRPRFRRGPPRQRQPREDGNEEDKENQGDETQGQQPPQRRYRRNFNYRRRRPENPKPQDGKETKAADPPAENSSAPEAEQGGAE

Binding data for one substance are collected here from paper PMC7782553.

Results are given in words; binding and its absence hold for the method and conditions named. Binding seen in cells or lysates may run through a third protein. These calls come from enrichment with a bait or labelling near it, and not all partners need be listed.

Consider “Y-box binding protein 1 (YB-1), endogenous (from UniProt P67809 1-324)”, for which the binding result is “binds”.
